The test system of this assay is Gardner 6C3HED lymphosarcoma ip, C3AKF1 mice, survival T/C. In words: NCI In Vivo Anticancer Drug Screen. Data for tumor model Lymphosarcoma Gardner 6C3HED (intraperitoneal) in C3AKF1 (CHKRF1) mice. To be noted: T/C endpoint: survival time, mean or median, schedule: Q01DX010 (ip), vehicle: saline, higher T/C = longer survival. As to the method:
The antitumor activity of compounds was measured in mice bearing transplantable tumors. Survival or tumor size were measured and the results are expressed as the measurement made in the treated group (T) divided by the measurement made in the vehicle treated control group (C). The tumor model used in this assay is Lymphosarcoma Gardner 6C3HED (intraperitoneal) in C3AKF1 (CHKRF1) mice

The list does not hold the whole screen: it covers a few groups of compounds. Other doses and runs of a compound may be missing. T/C gives the treated animals as a percentage of the vehicle group. For survival time, the PubChem record calls one and a half times the control and up active, and a quarter to a half above the control has no call in these data; cut-offs in other NCI protocols can differ. Some T/C values are marked as having no survivor count here; that says nothing about deaths at the dose. Schedule codes are those of the source, taken here to give the interval after Q, in days (D) or hours (H), and the number of doses after X. Some entries hold several experiments; their values stand side by side, smallest first. Additions like (4×) give the number of equal values in this list.

Consider `CN(CCCl)CCCl`, for which the T/C is, setting by setting: (dose: 0.06 mg/kg/injection) 108 [survivor count not shown], 120 [survivor count not shown] (2×), 131 % of control [survivor count not shown]; (dose: 0.13 mg/kg/injection) 91 [survivor count not shown], 120 [survivor count not shown] (2×), 150 [survivor count not shown], 172 % of control [survivor count not shown]; (dose: 0.25 mg/kg/injection) 90 [survivor count not shown], 150 [survivor count not shown] (2×), 170 [survivor count not shown], 175 % of control [survivor count not shown]; (dose: 0.5 mg/kg/injection) 179 [survivor count not shown], 181 [survivor count not shown], 195 [survivor count not shown], 200 % of control [survivor count not shown].

(Values after PubChem BioAssay AID232 (DTP/NCI, 2004).)
